Values quoted from earlier work in article PMC7259466 (bioRxiv, 2020).

Tested on: SARS-CoV-2
Conditions: cited from earlier work

CN(C)CCCN1c2ccccc2CCc2ccc(Cl)cc21 [Clomipramine]
IC50: 5.93 µM
